Data from the supplement of paper PMC10849652.
Some of the results follow.

Chains of the proteins cited; added tags and fusions are not shown. Lines headed by an entry give the natural chain unless they say otherwise; changes in a name come on top.
UniProt P54136: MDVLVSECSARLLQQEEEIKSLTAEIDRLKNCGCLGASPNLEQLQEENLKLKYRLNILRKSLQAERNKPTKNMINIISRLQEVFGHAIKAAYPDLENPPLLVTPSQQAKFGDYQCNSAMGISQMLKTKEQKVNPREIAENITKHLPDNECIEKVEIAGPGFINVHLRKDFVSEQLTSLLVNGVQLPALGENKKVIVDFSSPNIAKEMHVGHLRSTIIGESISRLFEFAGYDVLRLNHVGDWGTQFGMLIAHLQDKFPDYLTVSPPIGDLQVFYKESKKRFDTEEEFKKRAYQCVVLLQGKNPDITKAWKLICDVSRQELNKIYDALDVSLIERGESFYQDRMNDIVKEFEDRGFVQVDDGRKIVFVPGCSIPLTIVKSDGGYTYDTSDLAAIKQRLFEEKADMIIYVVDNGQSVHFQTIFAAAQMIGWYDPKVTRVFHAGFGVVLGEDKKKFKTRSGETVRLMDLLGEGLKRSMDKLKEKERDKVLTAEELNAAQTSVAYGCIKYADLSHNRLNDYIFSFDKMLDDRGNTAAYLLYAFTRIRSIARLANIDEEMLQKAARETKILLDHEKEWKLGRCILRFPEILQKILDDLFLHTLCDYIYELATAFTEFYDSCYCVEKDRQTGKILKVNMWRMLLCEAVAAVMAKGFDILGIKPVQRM
UniProt Q96EV2: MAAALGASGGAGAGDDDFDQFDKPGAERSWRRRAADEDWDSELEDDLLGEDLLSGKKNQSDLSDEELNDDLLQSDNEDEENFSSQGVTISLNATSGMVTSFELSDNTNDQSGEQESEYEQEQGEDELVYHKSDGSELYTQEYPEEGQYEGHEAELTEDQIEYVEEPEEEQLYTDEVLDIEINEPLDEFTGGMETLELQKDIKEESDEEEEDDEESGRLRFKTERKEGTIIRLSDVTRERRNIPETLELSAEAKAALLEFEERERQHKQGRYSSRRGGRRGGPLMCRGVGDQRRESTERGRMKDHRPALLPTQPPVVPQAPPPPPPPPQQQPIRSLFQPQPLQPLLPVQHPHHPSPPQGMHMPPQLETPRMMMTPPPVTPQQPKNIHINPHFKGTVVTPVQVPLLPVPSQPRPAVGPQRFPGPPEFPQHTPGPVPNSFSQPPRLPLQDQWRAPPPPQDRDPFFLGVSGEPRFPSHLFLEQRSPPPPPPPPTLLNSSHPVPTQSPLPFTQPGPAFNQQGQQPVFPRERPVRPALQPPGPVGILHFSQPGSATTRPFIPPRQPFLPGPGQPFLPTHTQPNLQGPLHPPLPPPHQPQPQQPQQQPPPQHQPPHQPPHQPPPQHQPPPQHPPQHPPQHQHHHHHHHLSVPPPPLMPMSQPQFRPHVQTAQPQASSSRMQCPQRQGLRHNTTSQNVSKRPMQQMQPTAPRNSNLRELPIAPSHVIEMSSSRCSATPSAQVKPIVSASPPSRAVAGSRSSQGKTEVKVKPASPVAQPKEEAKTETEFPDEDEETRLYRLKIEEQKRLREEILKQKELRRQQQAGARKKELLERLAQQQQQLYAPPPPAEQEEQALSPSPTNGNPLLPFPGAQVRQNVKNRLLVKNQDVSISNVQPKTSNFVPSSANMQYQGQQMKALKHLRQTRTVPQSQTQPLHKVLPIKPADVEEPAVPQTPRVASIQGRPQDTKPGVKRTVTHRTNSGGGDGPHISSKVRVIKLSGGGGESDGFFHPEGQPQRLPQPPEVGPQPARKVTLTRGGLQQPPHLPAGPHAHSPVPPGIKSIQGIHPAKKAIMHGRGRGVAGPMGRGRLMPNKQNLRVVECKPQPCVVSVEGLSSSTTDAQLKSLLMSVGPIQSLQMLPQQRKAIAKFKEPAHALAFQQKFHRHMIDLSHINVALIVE
UniProt Q9H6Z4: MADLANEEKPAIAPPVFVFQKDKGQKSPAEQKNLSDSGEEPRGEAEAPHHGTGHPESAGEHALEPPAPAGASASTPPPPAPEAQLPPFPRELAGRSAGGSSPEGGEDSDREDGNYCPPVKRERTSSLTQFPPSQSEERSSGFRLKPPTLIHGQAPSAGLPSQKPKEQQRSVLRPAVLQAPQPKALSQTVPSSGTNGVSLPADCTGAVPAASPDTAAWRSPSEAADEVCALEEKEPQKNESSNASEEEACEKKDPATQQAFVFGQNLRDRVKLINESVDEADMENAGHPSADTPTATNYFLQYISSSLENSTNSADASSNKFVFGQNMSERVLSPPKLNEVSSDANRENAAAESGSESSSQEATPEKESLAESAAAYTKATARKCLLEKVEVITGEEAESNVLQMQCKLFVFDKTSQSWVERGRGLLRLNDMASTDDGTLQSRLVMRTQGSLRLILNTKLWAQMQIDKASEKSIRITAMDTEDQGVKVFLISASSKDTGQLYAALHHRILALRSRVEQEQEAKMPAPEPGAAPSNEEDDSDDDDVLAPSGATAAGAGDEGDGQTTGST
UniProt P61006: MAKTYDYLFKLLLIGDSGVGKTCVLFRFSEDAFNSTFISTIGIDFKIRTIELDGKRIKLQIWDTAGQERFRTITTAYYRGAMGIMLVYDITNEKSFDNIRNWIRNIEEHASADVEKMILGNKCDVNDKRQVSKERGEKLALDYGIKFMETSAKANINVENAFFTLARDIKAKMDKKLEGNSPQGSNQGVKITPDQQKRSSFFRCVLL
UniProt P62820, whole entry, looked up: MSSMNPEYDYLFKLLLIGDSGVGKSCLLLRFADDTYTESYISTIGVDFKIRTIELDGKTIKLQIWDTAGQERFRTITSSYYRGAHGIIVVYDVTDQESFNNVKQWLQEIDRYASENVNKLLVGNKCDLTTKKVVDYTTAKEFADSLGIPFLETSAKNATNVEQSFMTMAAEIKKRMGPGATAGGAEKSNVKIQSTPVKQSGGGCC
UniProt Q9H082: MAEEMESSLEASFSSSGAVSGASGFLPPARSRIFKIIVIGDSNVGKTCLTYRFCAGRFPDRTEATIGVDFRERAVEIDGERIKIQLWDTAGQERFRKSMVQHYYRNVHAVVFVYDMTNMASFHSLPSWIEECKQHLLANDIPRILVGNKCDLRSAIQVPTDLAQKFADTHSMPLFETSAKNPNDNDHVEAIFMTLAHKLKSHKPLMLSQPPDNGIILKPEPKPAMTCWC
UniProt Q3YEC7: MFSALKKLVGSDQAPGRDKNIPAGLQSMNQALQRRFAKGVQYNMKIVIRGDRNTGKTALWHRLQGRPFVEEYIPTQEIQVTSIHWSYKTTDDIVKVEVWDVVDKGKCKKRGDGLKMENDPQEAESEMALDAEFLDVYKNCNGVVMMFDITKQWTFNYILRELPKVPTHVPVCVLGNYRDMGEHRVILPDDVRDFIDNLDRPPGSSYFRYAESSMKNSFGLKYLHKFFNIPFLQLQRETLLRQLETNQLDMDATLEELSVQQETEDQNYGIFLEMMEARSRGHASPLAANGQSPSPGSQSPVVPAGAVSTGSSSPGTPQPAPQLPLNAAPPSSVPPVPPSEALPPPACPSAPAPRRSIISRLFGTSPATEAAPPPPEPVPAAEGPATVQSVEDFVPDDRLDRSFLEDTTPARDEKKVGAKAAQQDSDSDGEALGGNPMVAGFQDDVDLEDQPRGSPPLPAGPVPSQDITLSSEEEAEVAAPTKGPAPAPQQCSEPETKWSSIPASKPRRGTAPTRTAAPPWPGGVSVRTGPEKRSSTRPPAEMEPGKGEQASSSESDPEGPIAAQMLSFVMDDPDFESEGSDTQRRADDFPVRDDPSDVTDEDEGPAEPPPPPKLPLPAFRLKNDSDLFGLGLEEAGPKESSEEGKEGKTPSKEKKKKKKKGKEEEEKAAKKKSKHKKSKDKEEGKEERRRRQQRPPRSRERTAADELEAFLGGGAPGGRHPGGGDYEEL
UniProt P54725: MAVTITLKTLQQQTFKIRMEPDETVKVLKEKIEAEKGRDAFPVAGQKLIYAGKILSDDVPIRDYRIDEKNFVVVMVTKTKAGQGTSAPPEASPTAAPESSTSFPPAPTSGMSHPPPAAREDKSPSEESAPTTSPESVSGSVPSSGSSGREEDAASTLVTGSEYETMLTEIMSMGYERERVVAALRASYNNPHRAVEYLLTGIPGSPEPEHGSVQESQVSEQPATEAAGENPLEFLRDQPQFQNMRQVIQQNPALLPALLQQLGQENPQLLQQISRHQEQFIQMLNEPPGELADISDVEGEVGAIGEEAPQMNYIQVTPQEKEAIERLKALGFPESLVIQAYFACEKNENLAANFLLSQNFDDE
UniProt Q9UKM9: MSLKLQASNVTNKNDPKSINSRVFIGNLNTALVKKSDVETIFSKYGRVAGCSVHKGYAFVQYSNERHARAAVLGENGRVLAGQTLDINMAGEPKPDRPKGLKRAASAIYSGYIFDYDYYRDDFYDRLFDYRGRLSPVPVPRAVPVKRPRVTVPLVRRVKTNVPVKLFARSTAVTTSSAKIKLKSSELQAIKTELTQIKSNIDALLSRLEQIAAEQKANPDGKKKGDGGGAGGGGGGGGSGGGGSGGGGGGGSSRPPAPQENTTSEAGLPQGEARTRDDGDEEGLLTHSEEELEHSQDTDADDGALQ
UniProt P51153: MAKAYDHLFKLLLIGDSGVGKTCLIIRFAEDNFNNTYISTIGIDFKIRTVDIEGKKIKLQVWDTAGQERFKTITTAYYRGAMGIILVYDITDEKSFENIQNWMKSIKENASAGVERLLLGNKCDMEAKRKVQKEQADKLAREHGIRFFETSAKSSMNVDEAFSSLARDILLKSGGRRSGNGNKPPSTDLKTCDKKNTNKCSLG
UniProt O43251: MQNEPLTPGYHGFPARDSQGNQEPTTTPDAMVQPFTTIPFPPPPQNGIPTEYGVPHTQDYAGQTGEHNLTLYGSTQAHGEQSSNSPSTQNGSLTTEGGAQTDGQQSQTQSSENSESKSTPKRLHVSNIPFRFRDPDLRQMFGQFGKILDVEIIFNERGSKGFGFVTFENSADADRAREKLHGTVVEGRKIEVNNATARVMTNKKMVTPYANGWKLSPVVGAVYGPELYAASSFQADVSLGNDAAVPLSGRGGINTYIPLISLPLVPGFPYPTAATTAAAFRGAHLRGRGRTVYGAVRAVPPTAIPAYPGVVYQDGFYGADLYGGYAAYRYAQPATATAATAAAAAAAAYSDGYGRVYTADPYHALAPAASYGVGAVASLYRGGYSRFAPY
UniProt Q96S21: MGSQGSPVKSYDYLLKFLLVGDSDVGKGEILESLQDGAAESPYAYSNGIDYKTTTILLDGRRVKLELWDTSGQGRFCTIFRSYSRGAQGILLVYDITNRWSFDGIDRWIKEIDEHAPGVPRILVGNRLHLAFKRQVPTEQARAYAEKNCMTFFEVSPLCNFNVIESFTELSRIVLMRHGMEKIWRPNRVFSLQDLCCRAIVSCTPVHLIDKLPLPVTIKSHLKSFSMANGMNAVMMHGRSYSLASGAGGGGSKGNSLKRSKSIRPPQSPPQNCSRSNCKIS
UniProt Q9UL26: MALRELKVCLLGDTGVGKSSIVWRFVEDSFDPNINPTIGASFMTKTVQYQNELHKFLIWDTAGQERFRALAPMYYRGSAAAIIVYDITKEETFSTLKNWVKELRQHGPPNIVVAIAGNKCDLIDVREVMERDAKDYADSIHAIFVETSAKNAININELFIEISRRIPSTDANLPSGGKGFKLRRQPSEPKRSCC
UniProt Q96QF0: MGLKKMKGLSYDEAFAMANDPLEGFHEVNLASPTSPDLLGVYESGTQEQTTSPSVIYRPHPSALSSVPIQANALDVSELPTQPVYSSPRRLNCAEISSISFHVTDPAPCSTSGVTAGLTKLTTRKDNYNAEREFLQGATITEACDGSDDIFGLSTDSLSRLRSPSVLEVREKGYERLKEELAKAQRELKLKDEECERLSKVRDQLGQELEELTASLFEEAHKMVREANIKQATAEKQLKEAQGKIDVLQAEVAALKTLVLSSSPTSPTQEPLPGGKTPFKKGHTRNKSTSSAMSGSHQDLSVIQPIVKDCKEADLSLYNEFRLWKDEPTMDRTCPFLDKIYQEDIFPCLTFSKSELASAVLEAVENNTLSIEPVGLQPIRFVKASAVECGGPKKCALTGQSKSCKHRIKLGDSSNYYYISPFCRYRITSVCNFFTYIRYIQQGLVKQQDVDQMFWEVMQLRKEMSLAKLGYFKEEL
UniProt Q9NX57: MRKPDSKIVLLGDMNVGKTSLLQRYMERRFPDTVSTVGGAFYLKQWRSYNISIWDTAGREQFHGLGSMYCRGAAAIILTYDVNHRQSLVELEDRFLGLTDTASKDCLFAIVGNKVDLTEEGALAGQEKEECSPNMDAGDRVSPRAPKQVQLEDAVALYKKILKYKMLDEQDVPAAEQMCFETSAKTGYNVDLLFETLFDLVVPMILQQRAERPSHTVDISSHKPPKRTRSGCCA
UniProt P61019: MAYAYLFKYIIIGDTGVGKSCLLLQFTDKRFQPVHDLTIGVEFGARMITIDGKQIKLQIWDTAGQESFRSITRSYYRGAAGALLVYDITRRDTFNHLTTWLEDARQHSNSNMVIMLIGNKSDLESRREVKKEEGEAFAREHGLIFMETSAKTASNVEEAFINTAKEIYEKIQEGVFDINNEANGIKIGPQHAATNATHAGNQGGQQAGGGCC

What was measured:
Assay in all cases: log2 fold change, soluble protein after heating vs DMSO (PISA); higher = thermal stabilisation; K562 cells, 10 uM, 30 min; active = over 0.2 and 3.5 SD of the protein, either way, in both replicates (recomputed)
[1] = compound: CC1=C(C=C(C=C1)NC(=O)C2=CC(=CC=C2)C(C)(C)C#N)NC3=CC4=C(C=C3)N=CN(C4=O)C
Procedure, shortened: (§1)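 Values are thermal stability changes relative to control samples and are taken from duplicates. They are stated as log2 fold changes. Before quantification by TMTpro 16plex LC-MS/MS with equalised channel sums, K562 cells at 2×10^6 cells/mL were treated with 10 μM compound for 30 min, heated in aliquots for 3 min across 48°C-58°C, pooled, extracted in PBS with 0.5% NP-40 at 4°C, and centrifuged at 21,000xg for 90 min to give the soluble supernatant.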

[2] = compound: CC1=C(C=C(C=C1)NC(=O)C2=CC(=CC=C2)N(C)C)NC(=O)C3=CC=C(C=C3)O
Procedure, shortened: as §1

[3] = compound: CC1=CC=C(C=C1)SC2=C3C=C(SC3=CN=C2)C(=O)N
Procedure, shortened: as §1

[4] = compound: CC1=NC(=CC=C1)C2=C(N=C(N2)C(C)(C)C)C3=CC4=NC=CN=C4C=C3
Procedure, shortened: as §1

Nexturastat A = compound: CCCCN(Cc1ccc(C(=O)NO)cc1)C(=O)Nc1ccccc1 [Nexturastat A]
Procedure, shortened: as §1

vemurafenib = compound: CCCS(=O)(=O)Nc1ccc(F)c(C(=O)c2c[nH]c3ncc(-c4ccc(Cl)cc4)cc23)c1F [vemurafenib]
Procedure, shortened: as §1

[5] = compound: CCCS(=O)(=O)Nc1ccc(F)c(C(=O)c2c[nH]c3ncc(Cl)cc23)c1F
Procedure, shortened: as §1

[6] = compound: CCCc1cc(C)[nH]c(=O)c1CNC(=O)c1cc(-c2ccnc(N3CCN(C)CC3)c2)cc2c1cnn2C(C)C
Procedure, shortened: as §1

givinostat = compound: CCN(CC)Cc1ccc2cc(COC(=O)Nc3ccc(C(=O)NO)cc3)ccc2c1 [givinostat]
Procedure, shortened: as §1

barasertib = compound: CCN(CCCOc1ccc2c(Nc3cc(CC(=O)Nc4cccc(F)c4)[nH]n3)ncnc2c1)CCOP(=O)(O)O [barasertib]
Procedure, shortened: as §1

Measured: log2 fold change

RARS (UniProt P54136)
inactive: [1] 0.005 | [2] 0.006 | [3] -0.011 | [4] -0.048 | Nexturastat A 0.325 | vemurafenib -0.018 | [5] 0.058 | [6] 0.075 | givinostat 0.016 | barasertib 0.037

RBM33 (UniProt Q96EV2)
inactive: [1] -0.024 | [2] -0.001 | [3] -0.014 | [4] 0.014 | Nexturastat A 0.021 | vemurafenib -0.019 | [5] 0.022 | [6] 0.022 | givinostat 0.077 | barasertib 0.037

RANBP3 (UniProt Q9H6Z4)
inactive: [1] -0.003 | [2] 0.013 | [3] 0.042 | [4] 0.052 | Nexturastat A -0.08 | vemurafenib 0.016 | [5] 0.054 | [6] -0.013 | givinostat 0.002 | barasertib -0.015

RAB8A (UniProt P61006)
inactive: [1] 0.065 | [2] -0.084 | [3] 0.033 | [4] -0.031 | Nexturastat A -0.031 | vemurafenib -0.016 | [5] 0.012 | [6] 0.001 | givinostat -0.011 | barasertib 0.052

RBBP7 isoform 2 (UniProt Q16576)
inactive: [1] 0.028 | [2] -0.016 | [3] 0.006 | [4] 0.042 | Nexturastat A -0.077 | vemurafenib 0.038 | [5] 0.014 | [6] -0.099 | givinostat -0.025 | barasertib 0.008

RAB1A (UniProt P62820)
inactive: [1] 0.001 | [2] 0.048 | [3] -0.004 | [4] 0.008 | Nexturastat A -0.113 | vemurafenib -0.021 | [5] -0.028 | [6] 0.059 | givinostat 0.009 | barasertib -0.003

RAC3 (UniProt P60763)
inactive: [1] 0.025 | [2] -0.021 | [3] 0.084 | [4] -0.004 | Nexturastat A -0.042 | vemurafenib 0.006 | [5] -0.006 | [6] -0.044 | givinostat -0.037 | barasertib -0.015

RAB6B (UniProt Q9NRW1)
inactive: [1] 0.052 | [2] -0.004 | [3] -0.02 | [4] -0.025 | Nexturastat A -0.065 | vemurafenib -0.072 | [5] -0.053 | [6] 0.095 | givinostat 0.028 | barasertib -0.016

RAP1B (UniProt P61224)
inactive: [1] 0.004 | [2] 0.014 | [3] 0.003 | [4] 0.061 | Nexturastat A -0.032 | vemurafenib 0.041 | [5] -0.005 | [6] 0.039 | givinostat 0.024 | barasertib -0.022

RABEP1 (UniProt Q15276)
inactive: [1] 0.005 | [2] -0.034 | [3] 0.004 | [4] -0.006 | Nexturastat A 0.175 | vemurafenib 0.014 | [5] 0.038 | [6] 0.02 | givinostat 0.076 | barasertib 0.029

RAF1 isoform 2 (UniProt P04049)
inactive: [1] 0.317 | [2] 0.056 | [3] 0.078 | [4] -0.043 | Nexturastat A 0.077 | vemurafenib 0.17 | [5] 0.438 | [6] -0.113 | givinostat 0.016 | barasertib 0.044

RAB10 (UniProt P61026)
inactive: [1] -0.012 | [2] 0.018 | [3] -0.021 | [4] 0.021 | Nexturastat A -0.09 | vemurafenib 0.02 | [5] -0.022 | [6] -0.019 | givinostat -0.013 | barasertib 0.013

RAB33B (UniProt Q9H082)
inactive: [1] -0.028 | [2] -0.026 | [3] -0.028 | [4] -0.071 | Nexturastat A -0.004 | vemurafenib -0.083 | [5] -0.038 | [6] -0.065 | givinostat -0.012 | barasertib 0.031

RAC1 (UniProt P63000)
inactive: [1] 0.14 | [2] -0.002 | [3] -0.055 | [4] 0.241 | Nexturastat A -0.021 | vemurafenib -0.046 | [5] -0.008 | [6] 0.032 | givinostat -0.059 | barasertib -0.026

Reprinted from above (2 entries):
RAF1 isoform 2 (UniProt P04049)
inactive: [1] 0.317 | [2] 0.056 | [3] 0.078 | [4] -0.043 | Nexturastat A 0.077 | vemurafenib 0.17 | [5] 0.438 | [6] -0.113 | givinostat 0.016 | barasertib 0.044

RAB10 (UniProt P61026)
inactive: [1] -0.012 | [2] 0.018 | [3] -0.021 | [4] 0.021 | Nexturastat A -0.09 | vemurafenib 0.02 | [5] -0.022 | [6] -0.019 | givinostat -0.013 | barasertib 0.013

Next results.

RABL6 (UniProt Q3YEC7)
inactive: [1] -0.029 | [2] -0.017 | [3] -0.017 | [4] -0.027 | Nexturastat A 0.015 | vemurafenib -0.008 | [5] -0.007 | [6] -0.004 | givinostat 0.026 | barasertib 0.008

RAD23A (UniProt P54725)
inactive: [1] -0.016 | [2] 0.031 | [3] -0.027 | [4] 0.027 | Nexturastat A -0.116 | vemurafenib -0.02 | [5] 0.018 | [6] -0.048 | givinostat -0.051 | barasertib -0.009

RALY (UniProt Q9UKM9)
inactive: [1] 0.091 | [2] -0.021 | [3] -0.05 | [4] 0.105 | Nexturastat A 0.358 | vemurafenib -0.056 | [5] 0.187 | [6] 0.005 | givinostat 0.209 | barasertib -0.138

RAB3C (UniProt Q96E17)
inactive: [1] -0.032 | [2] -0.042 | [3] -0.032 | [4] -0.001 | Nexturastat A -0.107 | vemurafenib -0.005 | [5] -0.019 | [6] 0.004 | givinostat -0.001 | barasertib 0.009

RAB13 (UniProt P51153)
inactive: [1] 0.099 | [2] 0.03 | [3] 0.001 | [4] 0.098 | Nexturastat A -0.228 | vemurafenib 0.171 | [5] 0.031 | [6] 0.029 | givinostat -0.025 | barasertib -0.007

RBFOX2 isoform 8 (UniProt O43251)
inactive: [1] -0.088 | [2] -0.061 | [3] 0.176 | [4] 0.058 | Nexturastat A 0.054 | vemurafenib -0.024 | [5] 0.132 | [6] 0.002 | givinostat 0.016 | barasertib 0.056

RAB40C (UniProt Q96S21)
inactive: [1] -0.025 | [2] -0.095 | [3] 0.127 | [4] -0.016 | Nexturastat A -0.037 | vemurafenib 0.033 | [5] -0.074 | [6] -0.197 | givinostat 0.11 | barasertib -0.099

RBBP6 (UniProt Q7Z6E9)
inactive: [1] -0.108 | [2] 0.119 | [3] 0.03 | [4] 0.127 | Nexturastat A -0.051 | vemurafenib 0.008 | [5] 0.068 | [6] -0.023 | givinostat 0.043 | barasertib -0.018

RAB22A (UniProt Q9UL26)
inactive: [1] -0.005 | [2] 0.023 | [3] 0.002 | [4] -0.035 | Nexturastat A 0.012 | vemurafenib -0.002 | [5] 0.001 | [6] -0.01 | givinostat -0.009 | barasertib -0.015

RAP1GAP isoform 4 (UniProt P47736)
inactive: [1] -0.052 | [2] -0.073 | [3] 0.074 | [4] 0.007 | Nexturastat A 0.094 | vemurafenib -0.002 | [5] 0.002 | [6] 0 | givinostat 0.136 | barasertib -0.036

RAB27A (UniProt P51159)
inactive: [1] -0.008 | [2] -0.02 | [3] 0.006 | [4] 0 | Nexturastat A -0.091 | vemurafenib 0.011 | [5] -0.029 | [6] 0.005 | givinostat 0 | barasertib 0.01

RAD51 (UniProt Q06609)
inactive: [1] -0.012 | [2] -0.017 | [3] -0.042 | [4] -0.052 | Nexturastat A 0.001 | vemurafenib 0.02 | [5] -0.048 | [6] 0.032 | givinostat 0.179 | barasertib 0.016

RAE1 (UniProt P78406)
inactive: [1] 0.018 | [2] 0.002 | [3] -0.003 | [4] 0.009 | Nexturastat A 0.106 | vemurafenib 0.046 | [5] 0.085 | [6] 0.089 | givinostat -0.224 | barasertib -0.006

RAB3IP (UniProt Q96QF0)
inactive: [1] 0.127 | [2] 0.077 | [3] 0.067 | [4] -0.042 | Nexturastat A -0.175 | vemurafenib -0.376 | [5] 0.171 | [6] 0.242 | givinostat -0.045 | barasertib -0.077

RAB20 (UniProt Q9NX57)
inactive: [1] -0.003 | [2] -0.002 | [3] 0.012 | [4] 0.001 | Nexturastat A -0.079 | vemurafenib -0.049 | [5] -0.019 | [6] 0.014 | givinostat 0.008 | barasertib 0.005

RAB2A (UniProt P61019)
inactive: [1] 0.001 | [2] 0.001 | [3] -0.013 | [4] 0.004 | Nexturastat A -0.154 | vemurafenib 0.009 | [5] 0.031 | [6] -0.022 | givinostat 0.014 | barasertib -0.007
